Measured values from patent publication US20240218040A1.
These are yes or no findings as the source states them, for the method shown. Some binding calls cover weakened binding; strength is not graded here. Sequences can lack the tags named with a protein.

Assays:
[1] = target: T1, recombinant human GDF-8 (human) (UniProt O14793); assay: MSD plate assay; Capture: Recombinant GDF-8, Detect: anti-Fc; 8x serial dilutions of purified protein
T1 sequence (looked up): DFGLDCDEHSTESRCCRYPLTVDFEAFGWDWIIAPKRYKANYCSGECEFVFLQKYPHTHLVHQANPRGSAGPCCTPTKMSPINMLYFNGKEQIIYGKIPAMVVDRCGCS

[2] = target: T1, recombinant human GDF-8 (human); assay: MSD plate assay; GDF-8 coated, 8x serial dilutions of ACVR2B-Fc, anti-human Fc antibody and SULFO-TAG secondary
[3] = target: T1, recombinant human GDF-8 (human); assay: MSD platform-based assay (figure legend)

- binding [1]: binds
- binding [2]: binds
- binding [3]: binds
B1: recombinant human ACVR2B-Fc fusion protein (Fc fusion, not shown: a dimerising Fc or GST)
chain: SGRGEAETRECIYYNANWELERTNQSGLERCEGEQDKRLHCYASWRNSSGTIELVKKGCWLDDFNCYDRQECVATEENPQVYFCCCEGNFCNERFTHLPEAGGPEVTYEPPPTAPT
